Assay results published in paper PMC8489136, “LncRNA MALAT1 was regulated by HPV16 E7 independently of pRB in cervical cancer cells”.
No constants are given. Whether binding was seen depends on the method and setting. Binding seen in cells or lysates may run through a third protein. Some results given as binding are weak or reduced against the parent protein; the word gives no strength.

Amino acid sequences for entries named in this document (tags omitted).
UniProt P08047: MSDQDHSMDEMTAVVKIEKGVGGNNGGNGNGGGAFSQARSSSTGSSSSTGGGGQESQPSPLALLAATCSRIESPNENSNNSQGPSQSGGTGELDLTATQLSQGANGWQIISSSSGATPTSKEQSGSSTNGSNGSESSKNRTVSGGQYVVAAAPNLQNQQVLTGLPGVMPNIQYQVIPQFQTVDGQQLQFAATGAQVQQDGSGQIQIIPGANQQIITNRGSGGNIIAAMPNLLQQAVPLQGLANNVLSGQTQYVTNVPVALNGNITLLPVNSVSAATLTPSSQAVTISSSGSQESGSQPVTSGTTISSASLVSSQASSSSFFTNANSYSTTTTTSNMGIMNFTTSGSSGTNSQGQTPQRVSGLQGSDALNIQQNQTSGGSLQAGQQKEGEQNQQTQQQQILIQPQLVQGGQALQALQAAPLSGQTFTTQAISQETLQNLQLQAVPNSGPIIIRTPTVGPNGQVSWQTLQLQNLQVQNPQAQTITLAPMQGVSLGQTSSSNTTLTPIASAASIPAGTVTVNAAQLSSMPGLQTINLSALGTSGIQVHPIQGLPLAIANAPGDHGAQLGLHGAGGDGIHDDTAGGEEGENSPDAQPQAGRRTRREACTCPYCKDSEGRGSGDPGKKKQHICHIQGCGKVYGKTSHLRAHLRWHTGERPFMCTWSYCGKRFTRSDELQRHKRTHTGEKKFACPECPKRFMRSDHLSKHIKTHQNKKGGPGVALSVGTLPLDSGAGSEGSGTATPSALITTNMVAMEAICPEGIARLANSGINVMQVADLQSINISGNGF

Legend:
[1] = target: myc-tagged HPV16 E7 deletion mutant E7ΔN (aa 28-98) (human papillomavirus type 16 (HPV16)) (UniProt P03129); assay: co-IP; C33A cells co-transfected with pCMV-flag-SP1 and pCMV-myc-E7FL or pCMV-myc-E7ΔN, 48 h; whole cell lysate, anti-myc IP 12 h, protein G agarose; anti-flag blot
[2] = target: myc-tagged HPV16 E7 full length (1-98 aa) (human papillomavirus type 16 (HPV16)) (UniProt P03129); assay: as above
[3] = target: myc-tagged HPV16 E7 deletion mutant E7ΔN (aa 28-98) (human papillomavirus type 16 (HPV16)) (UniProt P03129); assay: cross-linking + co-IP; total lysate of transfected C33A cells mixed with MALAT1 promoter probe, UV irradiated, incubated with the indicated antibody at 4 °C 12 h, protein G agarose, western blot
[4] = target: myc-tagged HPV16 E7 full length (1-98 aa) (human papillomavirus type 16 (HPV16)) (UniProt P03129); assay: as above

Measured: binding

flag-tagged SP1 (Specificity protein 1) (from UniProt P08047 1-785)
binds: all assays above
